In assay [1] the target is HerPBK10 carrier polypeptide comprising a Her cell-targeting segment, a penton base (PB) segment, a decalysine (K10) binding segment, and an N-terminal purification tag. Description: nanoparticle assembly by mixing at molar ratio 1:3 HerPBK10:GeloninD10.
For assay [2] the target is unchanged. Description: dynamic light scattering of the mixture against the single components.

These are yes or no findings as the source states them, for the method shown. Some results given as binding are weak or reduced against the parent protein; the word gives no strength.

On to “gelonin with a C-terminal deca-aspartic acid tag (from UniProt P33186 47-297)”, for which the binding entry in assay [1] and in assay [2] was “binds” each time.

These data come from patent publication US20210077575A1, “NANOPARTICLES FOR THE TARGETED DELIVERY OF THERAPEUTIC POLYPEPTIDES” (Cedars-Sinai Medical Center, priority 2018, published 2021).
